Measured data: PubChem BioAssay AID720505 (Drosophila RNAi Screening Center, 2013)
Purpose: 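Knock-downs that reduce calcium influx once internal stores are emptied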 (primary screen). Cell system: Drosophila S2R+ cells. Knock-down reagent: long dsRNA against Drosophila genes. Treatment: thapsigargin (2 µM) in calcium-free buffer to empty internal stores, then 2 mM calcium added back. Read-out: 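Fluo-4 signal in 384-well plates read on a FLIPR after thapsigargin (2 µM, calcium-free) store depletion and 2 mM calcium add-back; unnormalised mean endpoint per well; screen run twice, selected wells retested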. Reading the numbers: calcium signal and retest calcium signal: higher = more calcium entry after store depletion. Active means: 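Knock-downs counted as hits when calcium entry dropped relative to STIM1 positive and Rho1 negative controls present on each plate; roughly 1500 genes called, with reductions of differing size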. Meaning of the calls: active = called as lowering calcium entry; inactive = not called.
The deposit covers about 20,000 reagents; this is an unselected part of those with a known target gene and a result. Of all reagents, about 2,100 (10%) were called active. 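Raw plate signals without normalisation; calls rest on control-based scores that were not deposited; replicate 2 separates called from uncalled poorly.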 Unmarked entries are inactive. Names joined by + are all predicted targets of the reagent. No sequences are given here. Not given: the amount of reagent, the time to read-out.

The opening 7 records, to show the layout:
target | DRSC id | calcium signal, replicate 1 | calcium signal, replicate 2 | retest calcium signal, replicate 1 | retest calcium signal, replicate 2
Fsn | DRSC06875 | 162 | 132 | – | –
Ir51b | DRSC05540 | 110 | 166 | – | –
CG4404 | DRSC19897 | 101 | 88.6 | – | –
CG9686 | DRSC18439 | 131 | 95.7 | – | –
CycK | DRSC03714 | 153 | 84.7 | – | –
CG6873 | DRSC20014 | 74.2 (active) | 50.1 | – | –
alien + CG17906 | DRSC02641 | 114 | 148 | – | –

The list itself, from the start:
target | DRSC id | calcium signal, replicate 1 | calcium signal, replicate 2 | retest calcium signal, replicate 1 | retest calcium signal, replicate 2
Fsn | DRSC06875 | 162 | 132 | – | –
Ir51b | DRSC05540 | 110 | 166 | – | –
CG4404 | DRSC19897 | 101 | 88.6 | – | –
CG9686 | DRSC18439 | 131 | 95.7 | – | –
CycK | DRSC03714 | 153 | 84.7 | – | –
CG6873 | DRSC20014 | 74.2 (active) | 50.1 | – | –
alien + CG17906 | DRSC02641 | 114 | 148 | – | –
CG34447 | DRSC00741 | 198 | 89.6 | – | –
CG8841 | DRSC07286 | 182 | 157 | – | –
CG17109 | DRSC15172 | 221 | 188 | – | –
beat-Vb | DRSC14844 | 84.5 | 164 | – | –
beat-Vb | DRSC14845 | 42 (active) | 157 | – | –
eIF4H1 | DRSC20276 | 129 | 94.1 | – | –
CG15044 | DRSC19620 | 91.2 | 150 | – | –
CG15044 | DRSC21385 | 130 | 80.7 | – | –
CG14182 | DRSC10181 | 104 | 140 | – | –
pr | DRSC03596 | 98 | 107 | – | –
CG3746 | DRSC04412 | 79 | 140 | – | –
CG33281 | DRSC00421 | 118 | 99.6 | – | –
CG15115 | DRSC06537 | 109 | 129 | – | –
CG10214 | DRSC14213 | 238 | 232 | – | –
eRF1 | DRSC11779 | 113 | 107 | – | –
CG9568 | DRSC03265 | 121 | 157 | 77.5 | 73.2
CG10151 | DRSC05974 | 163 | 119 | – | –
zen2 | DRSC12633 | 121 | 170 | – | –
Obp57c + Obp57b | DRSC21914 | 77.4 | 156 | – | –
U2af50 | DRSC20297 | 120 | 130 | – | –
U2af50 | DRSC22867 | 88 | 90.4 | – | –
PIG-S | DRSC14643 | 250 | 275 | – | –
PIG-S | DRSC15388 | 146 | 108 | – | –
PIG-S | DRSC15952 | 179 | 281 | – | –
CG11275 | DRSC04095 | 204 | 82.5 | – | –
CG31897 | DRSC01020 | 186 | 85 | – | –
tau | DRSC14569 | 120 | 144 | – | –
tau | DRSC23046 | 98.6 | 137 | – | –
CG12104 | DRSC08254 | 179 | 134 | – | –
CG34214 | DRSC04490 | 195 | 79.8 | – | –
bonsai | DRSC04453 | 60.7 (active) | 136 | – | –
CG42329 | DRSC00373 | 148 | 130 | – | –
CG42329 | DRSC00682 | 174 | 113 | – | –
unc-4 | DRSC20381 | 84.9 | 90.9 | 8833 | 144
unc-4 | DRSC22074 | 109 | 289 | – | –
Vmat + CG13330 | DRSC06365 | 127 | 146 | – | –
Dbp45A | DRSC07395 | 146 | 117 | – | –
CG13949 | DRSC00367 | 61.2 (active) | 106 | 117 | 98.7
CG6071 | DRSC10579 | 111 | 93.3 | – | –
Ndg | DRSC06223 | 117 | 83.1 | – | –
CG34286 | DRSC21790 | 141 | 91.7 | – | –
CG6753 | DRSC16108 | 132 | 123 | – | –
Wnt4 | DRSC00976 | 67.8 (active) | 91.8 | – | –
Wnt4 | DRSC03477 | 174 | 85 | – | –
TfIIFbeta | DRSC16884 | 150 | 130 | – | –
TfIIFbeta | DRSC21447 | 101 | 70.2 | – | –
CG15356 | DRSC00386 | 122 | 127 | – | –
CG34194 | DRSC05666 | 127 | 89.1 | – | –
CG31272 | DRSC16058 | 168 | 115 | – | –
